Measurements: US11353463B2, “Redox-based reagents for methionine bioconjugation” (The Regents of the University of California, priority 2016, dated 2022)

Legend:
[1] = system: HeLa cell lysates; assay: Sites of probe labeling within a whole proteome by LC-MS/MS; parameters: species or system Human; settings: Ox4 1 mM, 10 min, trypsin digest, X!Tandem
[2] = system: HeLa cell lysates; assay: Reactive methionine profiling (TOP-ABPP); parameters: species or system Human; settings: n=2

C#CCNC(=O)N1OC1c1ccccc1 (stereo not drawn) [Ox4, 3-Phenyl-N-(prop-2-yn-1-yl)-1,2-oxaziridine-2-carboxamide]
modifications on cysteine side chains or other nucleophilic amino acids [1]: no other modifications detected
number of labeled lysine residues [1]: single
number of labeled methionine residues [1]: 235
peptides that carry the ReACT methionine modification ([2]; high dose, 250 μM probe): 1118
peptides that carry the ReACT methionine modification ([2]; low dose, 10 μM probe): 116
peptides that carry the ReACT methionine modification ([2]; medium dose, 50 μM probe): 458
